Laboratory results taken from article PMC5778506.
These are yes or no findings as the source states them, for the method shown. Binding seen in cells or lysates may run through a third protein. Here binding means that the protein was enriched with, or labelled near, the bait; the list need not be complete.

Amino acid sequences for entries named in this document (tags omitted).
UniProt O75152: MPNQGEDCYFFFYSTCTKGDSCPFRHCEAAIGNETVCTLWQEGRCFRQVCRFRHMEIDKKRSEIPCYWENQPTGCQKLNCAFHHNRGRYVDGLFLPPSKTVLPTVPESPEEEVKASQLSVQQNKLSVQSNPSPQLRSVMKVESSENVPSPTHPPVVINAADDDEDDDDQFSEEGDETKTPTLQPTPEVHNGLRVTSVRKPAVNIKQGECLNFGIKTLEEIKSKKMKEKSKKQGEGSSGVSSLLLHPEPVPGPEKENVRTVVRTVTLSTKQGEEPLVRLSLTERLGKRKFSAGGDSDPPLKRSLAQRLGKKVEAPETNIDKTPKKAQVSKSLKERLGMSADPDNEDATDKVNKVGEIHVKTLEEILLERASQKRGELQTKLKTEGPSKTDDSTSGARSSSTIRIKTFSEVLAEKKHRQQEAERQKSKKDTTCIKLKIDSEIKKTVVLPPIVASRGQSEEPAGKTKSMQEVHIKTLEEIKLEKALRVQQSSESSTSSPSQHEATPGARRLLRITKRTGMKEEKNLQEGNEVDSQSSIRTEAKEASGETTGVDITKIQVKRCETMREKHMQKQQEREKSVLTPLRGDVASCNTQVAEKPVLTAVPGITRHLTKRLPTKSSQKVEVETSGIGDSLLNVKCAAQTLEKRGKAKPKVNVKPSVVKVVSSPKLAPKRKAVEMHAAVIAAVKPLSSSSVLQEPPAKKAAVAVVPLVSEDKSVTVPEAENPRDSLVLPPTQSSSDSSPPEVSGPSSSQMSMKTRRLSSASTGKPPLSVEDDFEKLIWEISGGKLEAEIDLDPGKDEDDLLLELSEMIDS
UniProt Q6NZY4: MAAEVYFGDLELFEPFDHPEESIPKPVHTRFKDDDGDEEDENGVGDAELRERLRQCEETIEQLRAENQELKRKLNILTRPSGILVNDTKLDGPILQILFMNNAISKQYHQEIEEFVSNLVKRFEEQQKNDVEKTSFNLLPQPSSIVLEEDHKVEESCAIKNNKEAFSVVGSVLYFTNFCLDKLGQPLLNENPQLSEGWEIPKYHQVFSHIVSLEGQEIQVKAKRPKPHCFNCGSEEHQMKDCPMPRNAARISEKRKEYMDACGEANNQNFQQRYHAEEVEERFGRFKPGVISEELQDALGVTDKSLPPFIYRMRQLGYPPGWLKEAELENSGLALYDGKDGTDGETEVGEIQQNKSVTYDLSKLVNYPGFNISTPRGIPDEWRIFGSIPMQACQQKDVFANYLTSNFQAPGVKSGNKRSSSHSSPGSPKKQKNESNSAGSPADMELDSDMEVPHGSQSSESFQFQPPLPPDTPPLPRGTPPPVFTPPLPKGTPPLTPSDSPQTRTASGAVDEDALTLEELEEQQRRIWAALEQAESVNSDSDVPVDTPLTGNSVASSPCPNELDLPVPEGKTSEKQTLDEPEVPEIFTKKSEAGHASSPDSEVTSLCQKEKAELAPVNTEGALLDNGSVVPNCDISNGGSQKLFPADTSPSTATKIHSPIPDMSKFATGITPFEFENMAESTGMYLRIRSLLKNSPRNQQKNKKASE
UniProt P11940: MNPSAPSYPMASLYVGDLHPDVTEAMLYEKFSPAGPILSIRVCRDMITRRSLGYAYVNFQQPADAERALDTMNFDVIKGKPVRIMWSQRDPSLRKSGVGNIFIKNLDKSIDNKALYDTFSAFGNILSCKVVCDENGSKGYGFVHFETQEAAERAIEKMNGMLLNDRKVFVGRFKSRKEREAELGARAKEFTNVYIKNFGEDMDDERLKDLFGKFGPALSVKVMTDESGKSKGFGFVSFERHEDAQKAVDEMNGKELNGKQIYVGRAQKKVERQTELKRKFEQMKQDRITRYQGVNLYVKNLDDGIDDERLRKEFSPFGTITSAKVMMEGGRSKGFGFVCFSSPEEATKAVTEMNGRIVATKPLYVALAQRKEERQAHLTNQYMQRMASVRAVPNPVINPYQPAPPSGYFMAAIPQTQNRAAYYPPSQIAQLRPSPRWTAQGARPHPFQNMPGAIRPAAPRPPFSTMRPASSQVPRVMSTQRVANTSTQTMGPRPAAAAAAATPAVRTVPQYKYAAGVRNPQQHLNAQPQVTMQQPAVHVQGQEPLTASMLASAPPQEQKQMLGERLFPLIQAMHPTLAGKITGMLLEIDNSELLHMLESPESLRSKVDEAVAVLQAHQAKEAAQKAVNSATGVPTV

Tests used:
Assay in all cases: affinity purification with mass spectrometry; immunoprecipitation of endogenous pPABPN1 (anti-pS95 antibody) or total PABPN1 from U2-OS lysates (1% NP-40, 150 mM NaCl, 50 mM Tris-HCl pH 7.5, 1 mM MgCl2, 1% Benzonase), protein-A sepharose; cells treated with 50 ng/ml NCS for 30 min (total PABPN1: untreated cells too); siPABPN1 cells as control; hits >2-fold in at least two of three replicates
[1] = biological target: T1, nuclear poly(A)-binding protein 1 (total PABPN1) (human (endogenous in U2-OS)) (UniProt Q86U42)
T1 sequence: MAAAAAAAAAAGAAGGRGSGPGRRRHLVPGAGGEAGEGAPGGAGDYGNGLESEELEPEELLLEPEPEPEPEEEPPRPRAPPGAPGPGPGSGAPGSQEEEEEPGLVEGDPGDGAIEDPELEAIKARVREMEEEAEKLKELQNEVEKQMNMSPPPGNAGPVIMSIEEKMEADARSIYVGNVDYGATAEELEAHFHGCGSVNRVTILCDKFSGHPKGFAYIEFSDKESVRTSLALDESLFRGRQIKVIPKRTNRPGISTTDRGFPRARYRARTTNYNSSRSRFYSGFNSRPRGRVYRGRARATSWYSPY

[2] = biological target: T2, phospho-PABPN1 (nuclear poly(A)-binding protein 1 phosphorylated on Ser95) (human (endogenous in U2-OS)) (UniProt Q86U42)
T2 sequence (chain, phosphoserine at 95): T1 sequence

[3] = biological target: T3, nuclear poly(A)-binding protein 1 (total PABPN1) (human (endogenous in U2-OS)), Q86U42; details: remark: other sources report otherwise
T3 chain: T1 sequence

[4] = biological target: T4, phospho-PABPN1 (nuclear poly(A)-binding protein 1 phosphorylated on Ser95) (human (endogenous in U2-OS)), Q86U42; details: remark: other sources report otherwise
T4 chain: T1 sequence

Which results are given for “Zinc Finger CCCH-Type Containing 11A (from UniProt O75152 1-810)”?
binding [1]: binds; binding [2]: binds

For “Zinc Finger CCHC-Type Containing 8 (from UniProt Q6NZY4 1-707)”, which binding [1] is on record?
Its binding is “binds”.

And the binding [2]?
The binding was “binds”.

What does the source list for “Poly(A) Binding Protein Cytoplasmic 1 (from UniProt P11940 1-636)”?
binding [1]: binds; binding [2]: binds

B1: Ski2 Like RNA Helicase 2, P42285 1-1042 (protein)
chain: MADAFGDELFSVFEGDSTTAAGTKKDKEKDKGKWKGPPGSADKAGKRFDGKLQSESTNNGKNKRDVDFEGTDEPIFGKKPRIEESITEDLSLADLMPRVKVQSVETVEGCTHEVALPAEEDYLPLKPRVGKAAKEYPFILDAFQREAIQCVDNNQSVLVSAHTSAGKTVCAEYAIALALREKQRVIFTSPIKALSNQKYREMYEEFQDVGLMTGDVTINPTASCLVMTTEILRSMLYRGSEVMREVAWVIFDEIHYMRDSERGVVWEETIILLPDNVHYVFLSATIPNARQFAEWICHLHKQPCHVIYTDYRPTPLQHYIFPAGGDGLHLVVDENGDFREDNFNTAMQVLRDAGDLAKGDQKGRKGGTKGPSNVFKIVKMIMERNFQPVIIFSFSKKDCEAYALQMTKLDFNTDEEKKMVEEVFSNAIDCLSDEDKKLPQVEHVLPLLKRGIGIHHGGLLPILKETIEILFSEGLIKALFATETFAMGINMPARTVLFTNARKFDGKDFRWISSGEYIQMSGRAGRRGMDDRGIVILMVDEKMSPTIGKQLLKGSADPLNSAFHLTYNMVLNLLRVEEINPEYMLEKSFYQFQHYRAIPGVVEKVKNSEEQYNKIVIPNEESVVIYYKIRQQLAKLGKEIEEYIHKPKYCLPFLQPGRLVKVKNEGDDFGWGVVVNFSKKSNVKPNSGELDPLYVVEVLLRCSKESLKNSATEAAKPAKPDEKGEMQVVPVLVHLLSAISSVRLYIPKDLRPVDNRQSVLKSIQEVQKRFPDGIPLLDPIDDMGIQDQGLKKVIQKVEAFEHRMYSHPLHNDPNLETVYTLCEKKAQIAIDIKSAKRELKKARTVLQMDELKCRKRVLRRLGFATSSDVIEMKGRVACEISSADELLLTEMMFNGLFNDLSAEQATALLSCFVFQENSSEMPKLTEQLAGPLRQMQECAKRIAKVSAEAKLEIDEETYLSSFKPHLMDVVYTWATGATFAHICKMTDVFEGSIIRCMRRLEELLRQMCQAAKAIGNTELENKFAEGITKIKRDIVFAASLYL
Which binding [3] does the source give for B1 here?
Its binding is “binds”.

And the binding [4]?
Its binding is “binds”.

B2: Zinc Finger CCCH-Type Containing 14 (protein, UniProt Q6PJT7 1-736)
chain: MEIGTEISRKIRSAIKGKLQELGAYVDEELPDYIMVMVANKKSQDQMTEDLSLFLGNNTIRFTVWLHGVLDKLRSVTTEPSSLKSSDTNIFDSNVPSNKSNFSRGDERRHEAAVPPLAIPSARPEKRDSRVSTSSQESKTTNVRQTYDDGAATRLMSTVKPLREPAPSEDVIDIKPEPDDLIDEDLNFVQENPLSQKKPTVTLTYGSSRPSIEIYRPPASRNADSGVHLNRLQFQQQQNSIHAAKQLDMQSSWVYETGRLCEPEVLNSLEETYSPFFRNNSEKMSMEDENFRKRKLPVVSSVVKVKKFNHDGEEEEEDDDYGSRTGSISSSVSVPAKPERRPSLPPSKQANKNLILKAISEAQESVTKTTNYSTVPQKQTLPVAPRTRTSQEELLAEVVQGQSRTPRISPPIKEEETKGDSVEKNQGTQQRQLLSRLQIDPVMAETLQMSQDYYDMESMVHADTRSFILKKPKLSEEVVVAPNQESGMKTADSLRVLSGHLMQTRDLVQPDKPASPKFIVTLDGVPSPPGYMSDQEEDMCFEGMKPVNQTAASNKGLRGLLHPQQLHLLSRQLEDPNGSFSNAEMSELSVAQKPEKLLERCKYWPACKNGDECAYHHPISPCKAFPNCKFAEKCLFVHPNCKYDAKCTKPDCPFTHVSRRIPVLSPKPAVAPPAPPSSSQLCRYFPACKKMECPFYHPKHCRFNTQCTRPDCTFYHPTINVPPRHALKWIRPQTSE
Which results are given for B2?
binding [1]: binds; binding [2]: binds

B3: Zinc Finger CCCH-Type Containing 3 (protein, UniProt Q8IXZ2 1-948)
chain: MEEKEILRRQIRLLQGLIDDYKTLHGNAPAPGTPAASGWQPPTYHSGRAFSARYPRPSRRGYSSHHGPSWRKKYSLVNRPPGPSDPPADHAVRPLHGARGGQPPVPQQHVLERQVQLSQGQNVVIKVKPPSKSGSASASGAQRGSLEEFEETPWSDQRPREGEGEPPRGQLQPSRPTRARGTCSVEDPLLVCQKEPGKPRMVKSVGSVGDSPREPRRTVSESVIAVKASFPSSALPPRTGVALGRKLGSHSVASCAPQLLGDRRVDAGHTDQPVPSGSVGGPARPASGPRQAREASLVVTCRTNKFRKNNYKWVAASSKSPRVARRALSPRVAAENVCKASAGMANKVEKPQLIADPEPKPRKPATSSKPGSAPSKYKWKASSPSASSSSSFRWQSEASSKDHASQLSPVLSRSPSGDRPAVGHSGLKPLSGETPLSAYKVKSRTKIIRRRSSTSLPGDKKSGTSPAATAKSHLSLRRRQALRGKSSPVLKKTPNKGLVQVTTHRLCRLPPSRAHLPTKEASSLHAVRTAPTSKVIKTRYRIVKKTPASPLSAPPFPLSLPSWRARRLSLSRSLVLNRLRPVASGGGKAQPGSPWWRSKGYRCIGGVLYKVSANKLSKTSGQPSDAGSRPLLRTGRLDPAGSCSRSLASRAVQRSLAIIRQARQRREKRKEYCMYYNRFGRCNRGERCPYIHDPEKVAVCTRFVRGTCKKTDGTCPFSHHVSKEKMPVCSYFLKGICSNSNCPYSHVYVSRKAEVCSDFLKGYCPLGAKCKKKHTLLCPDFARRGACPRGAQCQLLHRTQKRHSRRAATSPAPGPSDATARSRVSASHGPRKPSASQRPTRQTPSSAALTAAAVAAPPHCPGGSASPSSSKASSSSSSSSSPPASLDHEAPSLQEAALAAACSNRLCKLPSFISLQSSPSPGAQPRVRAPRAPLTKDSGKPLHIKPRL
For B3, which binding [1] is on record?
Its binding is “binds”.

And the binding [2]?
Its binding is “binds”.
